Measurements: PubChem BioAssay AID687031 (Broad Institute, 2013)
The campaign covered roughly 1,400 compounds. About 50 (4%) were called active.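 Rule for the calls: active = fitted curve reaches 30% CPE protection at or below the top valid dose, with every test run called active; inconclusive = test runs disagree, some active and some not; inactive = every test run inactive, including effects in the wrong direction.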 The list shows a part of the results. Potency and affinity values are given separately.

Assay: Dengue virus 2 cytopathic effect protection, dose response, BHK-21 cells, ATP luminescence, cherry-pick (AID 687031);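 note: 0% = infected DMSO wells and 100% = uninfected cell wells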
Conditions: BHK-21 DENV2 CPE protection, 5 d; at 19.5 µM (top of the series) unless noted

CPE protection (higher = active), inactive:
CC1CCCN(CCOc2cccc(Oc3ccccc3)c2)C1 (centres undefined) -24.1%
O=C(NCC1CCCO1)c1ccccc1OCc1ccc(Cl)cc1 (centres undefined) -6.09%
COc1ccc(C2CC(c3ccccc3)=NN2S(=O)(=O)c2ccccc2)c(OC)c1 (centres undefined) 3.18%
c1ccc(-c2csc(-c3ccc(-c4csnn4)cc3)n2)cc1 -25%
Cc1cccc(OCCCN2CCC(C(O)(c3ccccc3)c3ccccc3)CC2)c1 -3.09%
CCC(=O)N1CC[C@@H]2[C@H]1c1cc(C#Cc3cccc(F)c3)ccc1N(C)[C@H]2CO -6.48%
CCOC(=O)C(=C1Nc2ccccc2N1)n1c(-c2cnccn2)nc2ccccc21 -5.6%
Cc1cccc(C)c1NC(=O)C1(C)CSCC(=O)N1Cc1cccc(C(F)(F)F)c1 (centres undefined) -22.9%
Cc1c(C(=O)N2CCCC2)oc2ccc(Br)cc12 -4.23%
COc1ccc(CCN2CC(C(=O)NCCc3cn[nH]c3)CCC2=O)cc1 (centres undefined) -10.8%
CCOC(=O)Cn1c(=O)oc2cc(S(=O)(=O)NC3CCCc4ccccc43)ccc21 (centres undefined) -9.97%
C[C@@H]1CCCCO[C@@H](CN(C)Cc2ccccc2)[C@@H](C)CN([C@H](C)CO)C(=O)c2cc(NC(=O)c3ccccc3)ccc2O1 -12.4% [at 21 µM]
CCN(c1ccccc1)S(=O)(=O)c1ccc(C(=O)N2CCN(c3ccccc3F)CC2)cc1 0.734%
CC(C)c1ccc(NC(=O)Nc2nc(C(N)CCc3ccccc3)cs2)cc1 (centres undefined) -17.6%
O=c1c2cc(Br)ccc2[nH]c(=S)n1Cc1ccccn1 -32.1% [at 10 µM]
O=C(Nc1ccc2c(c1)OCO2)c1cc(C2CCCCN2C(=O)OCCF)on1 (centres undefined) -1.38%
OC(c1ccccc1)(c1ccccc1)C1CCN(CCCOc2cccc(F)c2)CC1 -4.63%
COc1ccc(-c2c(-c3cc(OC)cc(OC)c3)n(C)c3ccc(Br)cc23)cc1 -4.38%
CCOc1ccc(N(CC(=O)NC2CCCCC2)C(=O)CNC(=O)c2cccs2)cc1 -6.55%
COCCNC(=O)c1cc2cc3ccc(OC)cc3nc2o1 16.9%
O=C(Nc1cccc(S(=O)(=O)N2CCCCCC2)c1)c1ccc2ccccc2n1 -22.6%
Cc1ccc(S(=O)(=O)N(C)C[C@H]2Oc3ccc(NS(=O)(=O)c4ccc(F)cc4)cc3C(=O)N([C@H](C)CO)C[C@@H]2C)cc1 -17% [at 21 µM]
CN1c2ccc(Br)cc2[C@H]2[C@H](CCN2C(=O)C2CCC2)[C@H]1CO 14.8% [at 21 µM]
COC(=O)CCc1cccc(CCC(=O)OC)c1 -3.04%
O=C(O)c1cccc(-c2csc(C(O)c3cccc(Cl)c3)n2)c1 (centres undefined) -5.26%
CN(CCC1CCCCO1)C(=O)CCc1nnc(CCc2ccccc2)o1 (centres undefined) -16%
COc1ccccc1NCC(=O)N/N=C(\C)c1ccc(Br)s1 18.7% [at 10 µM]
CCCCCC(=O)N1C[C@@H](n2cc(C3CC3)nn2)[C@H](O)C[C@@H]1c1ccccc1 -7.51%
O=S1(=O)CCO[C@H]2Cc3ccccc3[C@H]2N1Cc1ccc(Cl)cc1 16.6%
CNS(=O)(=O)c1cccc(C(=O)OCC(=O)N2c3ccccc3NC(=O)C2(C)C)c1 -7.28%
CC(=O)Nc1scc(C)c1-c1nc2ccccc2s1 25.4%
Cc1ccc(S(=O)(=O)c2nnn3c2nc(N2CCOCC2)c2ccccc23)cc1C 18.2%
COC(=O)C[C@@H]1OC[C@H](Cc2ccccc2)N1S(=O)(=O)c1ccc(C)cc1 9.14%
CCOC(=O)Cc1sc(N)nc1C 2.39%
COc1ccc(-c2csc(C(C)(O)c3ccc(F)c(F)c3)n2)cc1OC (centres undefined) -6.35%
CCc1nc2c(OCCc3cccc(OC)c3)cccn2c1N(C)C(=O)c1ccc(C)cc1 3.2%
CCC(=O)Nc1cc(C(=O)OCc2ccc(C(=O)Oc3ccccc3)cc2)ccc1C 10.7%
O=C(O)[C@]1(S(=O)(=O)c2ccccc2)C[C@@H]2ON=C(c3cccc(Br)c3)[C@@H]2C1 9.9%
Fc1ccc(-c2csc(-c3ccc(C4SCCS4)cc3)n2)cc1F 6.64%
Cc1noc(C)c1S(=O)(=O)Nc1ccc2c(c1)C(=O)N([C@@H](C)CO)C[C@@H](C)[C@@H](CN(C)C(=O)Nc1ccccc1)OCCCC[C@@H](C)O2 34% [at 10 µM]
C[C@@H]1CN([C@H](C)CO)C(=O)c2cc(NC(=O)c3ccncc3)ccc2O[C@@H](C)CCCCO[C@H]1CN(C)Cc1ccc(Cl)c(Cl)c1 12.8%
CCOc1ncccc1C(=O)NNC(=O)c1cccc(S(=O)(=O)Nc2ccccc2OC)c1 -1.9%
O=C(OCc1cn([C@H]2CN(C(=O)C3CCCCC3)[C@@H](c3ccccc3)C[C@@H]2O)nn1)c1ccccc1 -9.15%
COc1cc(OC)cc(C(=O)Nc2ccc(N3CCN(C(=O)c4cccs4)CC3)cc2)c1 17.4%
CCNC(=O)N(C)C[C@H]1N[C@@](CC)(C(=O)OC)[C@H]2C(=O)N(Cc3ccccc3)C(=O)[C@@H]12 -0.204%
CC1(C(=O)NCc2cccs2)Cc2c(-c3cccc(C(F)(F)F)c3)ccnc2O1 (centres undefined) 17%
COc1ccccc1S(=O)(=O)N(C)C[C@H]1Oc2cc(C#CCC(C)C)ccc2S(=O)(=O)N([C@@H](C)CO)C[C@@H]1C -24.4%
COc1cc(OC)cc(C(=O)NCc2ccc3c(c2)OCO3)c1 -6.35%
O=C(N[C@H](Cc1ccccc1)C(=O)NC1CCCCC1)[C@H]1O[C@@H](n2ccc(=O)[nH]c2=O)[C@H](O)[C@@H]1O 10.2%
CC1=C(C(=O)N(C)C)CC(CC(=O)NC2CCCCC2)C(=O)N1Cc1ccc(C(C)(C)C)cc1 (centres undefined) 17.7%
CS(=O)(=O)N1[C@@H]2c3ccc(-c4ccc(F)cc4)c(=O)n3C[C@H]1[C@H](CO)[C@H]2C(=O)N1CCOCC1 18%
CCOC(=O)N1C=CC=C[C@@H]2[C@@H](N3C(=O)c4ccccc4C3=O)C(=O)N21 -9.2%
CCN(CC)C(=O)C1CCN(Cc2ccc(OCc3ccccc3)cc2)CC1 26.5% [at 10 µM]
CC1(C(=O)NCc2ccccc2)CN(S(C)(=O)=O)CC(=O)N1CCc1ccc(O)cc1 (centres undefined) -2.07%
Cc1cc(OCC(=O)NC2CC(C)(C)NC(C)(C)C2)c(C)cc1Br -5.56%
O=C(O)CC(NC(=O)C12CC3CC(CC(C3)C1)C2)c1ccc(OC2CCCC2)cc1 (centres undefined) 16.6%
COc1cccc(C(O)c2nc(-c3cc(F)cc(F)c3)cs2)c1 (centres undefined) -22.6%
Cc1cc(Cl)c(OCCCNC2CCCC2)c(Br)c1 -1%
C[C@H]1CCCCO[C@H](CN(C)C(=O)Nc2ccc3c(c2)OCO3)[C@@H](C)CN([C@@H](C)CO)C(=O)c2cc(NC(=O)NC3CCCCC3)ccc2O1 -34.5%
COc1ccc(NC(=O)c2cc3ccccc3cc2O)cc1 16.6%
Fc1ccc(CCN2CCN=C2Nc2ccccc2)cc1 -3.47%
O=C(NCc1ccccc1)c1ccccc1 -3.58%
CCS(=O)(=O)Nc1ccc2c(c1)C(=O)N(C)C[C@H](OC)[C@@H](C)CN(C(=O)COC)[C@H](C)CO2 -1.35%
C[C@@H]1CCCCO[C@@H](CN(C)S(=O)(=O)c2ccc(F)cc2)[C@@H](C)CN([C@@H](C)CO)C(=O)c2cc(NC(=O)c3ccccc3)ccc2O1 -0.86%
C=CCOc1ccc(CNCc2cccnc2)cc1OCC -5.99%
CC(OC(=O)c1ccc2c(=O)n3c(nc2c1)CCC3)C(=O)NC1CCCCC1C (centres undefined) 20.4%
Cc1ccc(C(=O)NCC(=O)Nc2ccc(S(=O)(=O)Nc3cc(C)nc(C)n3)cc2)cc1 -0.439%
O=C(Nc1ncccc1O)c1ccc(S(=O)(=O)N2CCCCCC2)cc1 23.1%
COc1ccc(-c2cnc3c(NC(C)=O)cc(-c4ccccc4OC)cn23)cc1OC -20.4%
O=C(Oc1c(CN2CCOCC2)cc(Cl)c2cccnc12)c1ccccc1Br -11.5%
CC(NC(=O)CCc1ccccc1)c1ccc2c(c1)OCO2 (centres undefined) 1.74%
CCN1CCN(CCc2nc3cc(NC(=O)COc4ccc(Cl)cc4)ccc3n2C)CC1 -0.901%
COc1ccc(C)cc1NC(=O)C(c1ccccc1)N1CCN(CC(=O)N2CCOCC2)CC1 (centres undefined) -0.859%
Cc1ccccc1NS(=O)(=O)c1ccc(S(=O)(=O)N2CCCC2)cc1 2.34%
CC1(C(=O)Nc2cccc(OC(F)(F)F)c2)Cc2c(-c3cccc(C(N)=O)c3)ccnc2O1 (centres undefined) 8.12% [at 10 µM]
COc1ccccc1N1CCN(Cc2cnc3ccc(Cl)cn23)CC1 0.522%
COc1ccc(-c2sc3cc4c(cc3c2C#Cc2cncn2C)OCO4)cc1 17.5%
O[C@@H]1CN(Cc2cccs2)[C@@H](c2ccccc2)C[C@H]1n1cc(-c2ccc(F)cc2)nn1 9.08%
COc1ccc(NC(=O)N[C@H]2CC[C@@H](CCn3cc(C4(O)CCCC4)nn3)O[C@@H]2CO)cc1 9.92%

Some of these compounds in order of number of heavy atoms, smallest number first.
CPE protection (higher = active), inactive:
Fc1ccc(-c2csc(-c3ccc(C4SCCS4)cc3)n2)cc1F 6.64%
Cc1ccccc1NS(=O)(=O)c1ccc(S(=O)(=O)N2CCCC2)cc1 2.34%
COc1ccc(C2CC(c3ccccc3)=NN2S(=O)(=O)c2ccccc2)c(OC)c1 (centres undefined) 3.18%
C[C@@H]1CCCCO[C@@H](CN(C)S(=O)(=O)c2ccc(F)cc2)[C@@H](C)CN([C@@H](C)CO)C(=O)c2cc(NC(=O)c3ccccc3)ccc2O1 -0.86%
